Reference: paper PMC8941131
No constants are given. Whether binding was seen depends on the method and setting. In cells and extracts the contact can be indirect. Some entries that bind do so weakly or less than the wild type. Sequences can lack the tags named with a protein.

The chains behind the UniProt entries cited, without tags or fusion partners.
UniProt P31751: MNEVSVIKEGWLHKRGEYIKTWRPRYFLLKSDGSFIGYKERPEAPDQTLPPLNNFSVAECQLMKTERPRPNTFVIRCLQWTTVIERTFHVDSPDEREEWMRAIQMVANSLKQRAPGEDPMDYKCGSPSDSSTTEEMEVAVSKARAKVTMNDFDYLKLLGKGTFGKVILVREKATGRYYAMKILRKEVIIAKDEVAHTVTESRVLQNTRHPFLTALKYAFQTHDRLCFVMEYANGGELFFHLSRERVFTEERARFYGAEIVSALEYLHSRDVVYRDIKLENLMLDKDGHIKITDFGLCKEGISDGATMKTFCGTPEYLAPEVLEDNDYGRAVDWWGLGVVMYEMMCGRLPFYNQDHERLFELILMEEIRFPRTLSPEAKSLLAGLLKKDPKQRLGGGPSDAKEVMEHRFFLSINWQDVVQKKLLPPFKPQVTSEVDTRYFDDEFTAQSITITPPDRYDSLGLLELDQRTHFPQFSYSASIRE
UniProt Q9Y243: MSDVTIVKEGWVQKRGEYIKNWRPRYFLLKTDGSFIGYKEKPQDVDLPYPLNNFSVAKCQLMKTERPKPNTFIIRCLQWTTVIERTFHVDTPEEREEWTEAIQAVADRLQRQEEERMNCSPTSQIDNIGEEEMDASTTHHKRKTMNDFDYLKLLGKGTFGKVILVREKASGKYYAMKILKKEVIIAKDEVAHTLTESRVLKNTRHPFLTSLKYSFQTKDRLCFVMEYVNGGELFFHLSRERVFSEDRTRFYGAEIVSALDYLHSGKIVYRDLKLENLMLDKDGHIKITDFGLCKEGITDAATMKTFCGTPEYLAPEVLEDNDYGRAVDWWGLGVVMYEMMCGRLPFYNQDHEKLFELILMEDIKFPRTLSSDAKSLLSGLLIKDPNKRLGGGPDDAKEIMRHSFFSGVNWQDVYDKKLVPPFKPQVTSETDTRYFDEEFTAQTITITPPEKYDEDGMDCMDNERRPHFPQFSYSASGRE
UniProt P23443: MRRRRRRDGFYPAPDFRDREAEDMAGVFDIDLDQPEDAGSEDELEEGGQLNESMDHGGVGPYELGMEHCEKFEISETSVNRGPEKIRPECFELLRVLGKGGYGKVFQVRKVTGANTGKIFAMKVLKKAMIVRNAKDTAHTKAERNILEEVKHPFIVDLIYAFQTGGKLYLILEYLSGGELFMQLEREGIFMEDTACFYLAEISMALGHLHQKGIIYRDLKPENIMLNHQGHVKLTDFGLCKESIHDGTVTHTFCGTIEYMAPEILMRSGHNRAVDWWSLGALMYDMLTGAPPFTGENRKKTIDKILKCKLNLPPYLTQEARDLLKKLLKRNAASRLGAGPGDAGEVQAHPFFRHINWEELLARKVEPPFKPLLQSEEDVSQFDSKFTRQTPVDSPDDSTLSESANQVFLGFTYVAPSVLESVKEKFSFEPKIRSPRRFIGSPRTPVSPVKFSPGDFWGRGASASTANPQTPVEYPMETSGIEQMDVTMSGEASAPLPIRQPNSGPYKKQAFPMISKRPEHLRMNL
UniProt O00141: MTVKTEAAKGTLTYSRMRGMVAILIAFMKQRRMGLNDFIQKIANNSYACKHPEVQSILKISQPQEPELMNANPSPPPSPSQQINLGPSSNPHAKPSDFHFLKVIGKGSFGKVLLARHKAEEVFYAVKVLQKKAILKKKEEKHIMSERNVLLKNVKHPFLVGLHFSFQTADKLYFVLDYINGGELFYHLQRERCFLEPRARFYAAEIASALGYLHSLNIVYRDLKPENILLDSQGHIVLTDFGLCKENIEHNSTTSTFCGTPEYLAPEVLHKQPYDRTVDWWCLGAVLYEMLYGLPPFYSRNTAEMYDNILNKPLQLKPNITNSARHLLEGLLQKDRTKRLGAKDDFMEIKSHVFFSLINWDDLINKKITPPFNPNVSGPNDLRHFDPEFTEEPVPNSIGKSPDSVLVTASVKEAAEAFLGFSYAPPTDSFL

What was measured:
Assay in all cases: co-IP; immunoprecipitation (anti-Flag or anti-HA agarose, 2-4 h at 4 °C) from whole cell lysates of co-transfected 293T cells; EBC lysis buffer, four washes with NETN buffer, immunoblot; in some panels with HA-S6K1-R3A or knock-down of 14-3-3γ
[1] = target: T1, Flag-PDK1 (3-phosphoinositide-dependent protein kinase 1, wild type) (UniProt O15530)
T1 sequence: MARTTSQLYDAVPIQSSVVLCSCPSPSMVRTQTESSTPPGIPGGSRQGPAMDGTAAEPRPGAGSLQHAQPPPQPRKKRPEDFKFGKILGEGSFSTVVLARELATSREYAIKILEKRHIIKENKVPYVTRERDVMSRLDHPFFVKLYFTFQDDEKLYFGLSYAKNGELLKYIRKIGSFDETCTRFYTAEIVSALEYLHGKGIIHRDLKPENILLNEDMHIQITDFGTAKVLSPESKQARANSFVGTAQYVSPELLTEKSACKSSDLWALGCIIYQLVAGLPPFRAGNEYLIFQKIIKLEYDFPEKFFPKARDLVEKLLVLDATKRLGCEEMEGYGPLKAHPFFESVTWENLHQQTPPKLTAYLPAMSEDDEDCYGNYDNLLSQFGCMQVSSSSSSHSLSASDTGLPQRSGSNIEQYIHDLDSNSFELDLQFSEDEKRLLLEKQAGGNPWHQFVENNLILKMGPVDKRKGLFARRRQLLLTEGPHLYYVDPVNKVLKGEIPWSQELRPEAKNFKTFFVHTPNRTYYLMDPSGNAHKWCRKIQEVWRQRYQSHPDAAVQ

Flag-PDK1-S549A = target: T2, Flag-PDK1-S549A (UniProt O15530)
T2 sequence: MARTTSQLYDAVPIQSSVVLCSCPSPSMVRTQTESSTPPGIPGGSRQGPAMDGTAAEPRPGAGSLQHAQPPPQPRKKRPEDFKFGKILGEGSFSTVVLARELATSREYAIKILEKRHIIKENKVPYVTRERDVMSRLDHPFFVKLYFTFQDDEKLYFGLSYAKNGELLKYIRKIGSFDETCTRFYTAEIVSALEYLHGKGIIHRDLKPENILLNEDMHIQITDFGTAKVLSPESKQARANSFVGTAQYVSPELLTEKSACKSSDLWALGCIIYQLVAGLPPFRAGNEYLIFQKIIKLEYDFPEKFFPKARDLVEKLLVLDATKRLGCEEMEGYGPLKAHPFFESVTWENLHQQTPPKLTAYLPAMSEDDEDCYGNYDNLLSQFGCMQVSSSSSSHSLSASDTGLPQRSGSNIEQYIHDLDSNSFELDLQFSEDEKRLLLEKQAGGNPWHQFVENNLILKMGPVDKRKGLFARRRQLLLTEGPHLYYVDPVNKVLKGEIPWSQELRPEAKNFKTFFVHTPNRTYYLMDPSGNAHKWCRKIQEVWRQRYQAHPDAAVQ

Flag-PDK1-S549D = target: T3, Flag-PDK1-S549D (UniProt O15530)
T3 sequence: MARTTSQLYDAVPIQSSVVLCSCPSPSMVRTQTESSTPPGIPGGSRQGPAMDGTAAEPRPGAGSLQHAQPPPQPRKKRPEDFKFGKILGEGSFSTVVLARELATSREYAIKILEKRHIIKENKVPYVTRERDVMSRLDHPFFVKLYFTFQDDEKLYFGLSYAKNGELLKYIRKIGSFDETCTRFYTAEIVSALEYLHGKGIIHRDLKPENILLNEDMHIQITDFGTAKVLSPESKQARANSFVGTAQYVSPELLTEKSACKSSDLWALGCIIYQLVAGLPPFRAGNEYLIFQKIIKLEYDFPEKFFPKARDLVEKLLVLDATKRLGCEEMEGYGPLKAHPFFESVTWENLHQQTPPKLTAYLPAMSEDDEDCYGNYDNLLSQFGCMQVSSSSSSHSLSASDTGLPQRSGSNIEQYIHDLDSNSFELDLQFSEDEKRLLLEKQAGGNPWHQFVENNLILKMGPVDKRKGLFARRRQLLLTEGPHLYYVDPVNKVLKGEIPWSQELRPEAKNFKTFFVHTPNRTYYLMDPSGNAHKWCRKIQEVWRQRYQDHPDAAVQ

Measured: binding

HA-AKT2 (from UniProt P31751 1-481) (enzyme)
binds: [1] | Flag-PDK1-S549A | Flag-PDK1-S549D

HA-AKT3 (from UniProt Q9Y243 1-479) (enzyme)
binds: [1] | Flag-PDK1-S549A | Flag-PDK1-S549D

HA-S6K1 (from UniProt P23443 1-525) (enzyme)
binds: [1] | Flag-PDK1-S549A | Flag-PDK1-S549D

HA-SGK1 (from UniProt O00141 1-431) (enzyme)
binds: [1] | Flag-PDK1-S549A | Flag-PDK1-S549D
